Measurements from patent publication US9957332B2, “Compositions and methods for treating cocaine-related disorders” (University of Cincinnati, priority 2006, dated 2018).
At least one compound was matched to its structure with a doubt left.

Test: Cocaine pharmacokinetics in plasma and brain (GC/MS), absence of mAb
Conditions: mice, 5 min after cocaine i.v., absence of 2E2

## CN1[C@H]2CC[C@@H]1[C@@H](C(=O)O)[C@@H](OC(=O)c1ccccc1)C2 [benzoylecgonine]
  brain:plasma concentration ratio: 2.3:1
